# PubChem BioAssay AID504834 (National Center for Advancing Translational Sciences (NCATS), 2011)
# Among all 320,000 compounds or so, about 22,000 (6.9%) were called active. Inconclusive results, whose numbers are uncertain, are shown with a selection of clear calls. Calls come from the whole dose curve; as a rule, active = well fitted inhibition curve with a large enough effect; inconclusive = small, poorly fitted or top-dose-only effect, or another doubt; inactive = no such curve, though single readings can be large or run the other way. Potencies of inconclusive entries are doubtful fits and often do not repeat.
# Experiment: Primary qHTS for delayed death inhibitors of the malarial parasite plastid, 96 hour incubation
# Settings: P. falciparum luciferase reporter growth; series mostly up to 28.7 µM; activity change, negative = inhibition: at the top concentration
# How it was run: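 Two parasite generations (96 h, 37 C, 5% CO2) of compound exposure in infected erythrocytes (0.05% parasitemia, 2% hematocrit). Luciferase-reporter P. falciparum; decreased luminescence indicates inhibited growth, aimed at apicoplast-acting delayed death.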
# % is set by controls: 0 for no effect and ±100 for the full control effect; potency is the fitted concentration of half-maximal effect.
Compound,Potency,"activity change, negative = inhibition"
COc1ccc(C(=O)NC(=S)NNC(=O)CCc2ccccc2)cc1,"inconclusive: 18.5 µM [inhibitor, single point]",–
COc1ccc(-n2nc(C)c3onc(C)c3c2=O)cc1,–,inactive: 14%
Cc1cc(C)c2c(c1)-c1c(ssc1=S)C(C)(C)N2C(=O)CSc1nncn1C,"inconclusive: 9.28 µM [inhibitor, partial curve, poor fit]",–
CCOc1ccc(NC(=O)CCC(=O)NNS(=O)(=O)c2ccccc2[N+](=O)[O-])cc1,–,inactive: 19.4%
COc1ccc(CC(=O)Nc2ccncc2Cl)cc1,"inconclusive: 18.5 µM [inhibitor, single point]",–
O=C(NCc1ccc2c(c1)OCO2)c1cc(-c2cc(Cl)ccc2O)n[nH]1,"inconclusive: 10.4 µM [inhibitor, partial curve, poor fit]",–
CN(C)S(=O)(=O)c1ccc(Cl)c(C(=O)NC2=NCCS2)c1,"inconclusive: 2.08 µM [inhibitor, partial curve, poor fit]",–
CCCN1CCN(C(=S)Nc2ccc(S(N)(=O)=O)cc2)CC1,"inconclusive: 1.04 µM [inhibitor, partial curve, poor fit]",–
CN(Cc1ccccc1)C(=O)C1CCN(S(=O)(=O)c2cc([N+](=O)[O-])ccc2Cl)CC1,"inconclusive: 9.28 µM [inhibitor, single point]",–
CC(=O)c1cccc(NC(=S)N2CCCC2)c1,–,inactive: 37.1%
CC(OC(=O)c1ccc(-c2ccc([N+](=O)[O-])cc2)o1)C(=O)NC(N)=O (centres undefined),"inconclusive: 0.415 µM [inhibitor, full curve, poor fit]",–
CC(=O)c1ccc(N2CCN(C(=O)CNS(=O)(=O)c3ccc4c(c3)OCCCO4)CC2)c(F)c1,"inconclusive: 11.7 µM [inhibitor, single point]",–
Nc1nc(SCC(=O)c2ccc(Oc3ccccc3)cc2)n[nH]1,–,inactive: 0.382%
CC1CCCN(C(=O)CSc2nnc(-c3ccc(O)cc3)o2)C1 (centres undefined),–,inactive: 10.4%
COc1ccc(NC(=O)NNC(=O)COc2ccc3cc(Br)ccc3c2)cc1,–,inactive: 211%
Cc1c(OCC(=O)NCCCN2CCOCC2)ccc2c3c(c(=O)oc12)CCC3,"inconclusive: 18.5 µM [inhibitor, single point]",–
Cc1ccc(Nc2nnns2)cc1C,"inconclusive: 18.5 µM [inhibitor, single point]",–
CCCc1cc(N2CCN(c3ccccn3)CC2)n2nc(C)c(-c3ccccc3)c2n1,"inconclusive: 0.928 µM [inhibitor, partial curve]",–
O=[N+]([O-])c1ccc(O)c(N=Cc2sc3ccccc3c2O)c1,"inconclusive: 3.29 µM [inhibitor, partial curve, poor fit]",–

# Entries of single compounds as entered above. Order of values: Potency | activity change, negative = inhibition
# COc1ccc(NC(=O)NNC(=O)COc2ccc3cc(Br)ccc3c2)cc1 as listed: – | inactive: 211%
# COc1ccc(-n2nc(C)c3onc(C)c3c2=O)cc1 as listed: – | inactive: 14%
